Reference: article PMC11612967
No constants are given. Whether binding was seen depends on the method and setting. For part of these data: Binding seen in cells or lysates may run through a third protein. Some binding calls cover weakened binding; strength is not graded here. Blank lines part the entries; values can stand above or below the binder they belong to.

Key:
[1] = molecular target: T1, S. cerevisiae Smc6 (S. cerevisiae) (UniProt Q12749); experiment: SEC; large scale, 1 liter E. coli culture; Smc6 with C-terminal Twin-Strep tag; StrepTrap, HiTrap Heparin, then Superose 6 Increase in 10 mM Tris-HCl pH 7.5, 300 mM NaCl; peak fractions by SDS-PAGE and LC-MS/MS
T1 sequence: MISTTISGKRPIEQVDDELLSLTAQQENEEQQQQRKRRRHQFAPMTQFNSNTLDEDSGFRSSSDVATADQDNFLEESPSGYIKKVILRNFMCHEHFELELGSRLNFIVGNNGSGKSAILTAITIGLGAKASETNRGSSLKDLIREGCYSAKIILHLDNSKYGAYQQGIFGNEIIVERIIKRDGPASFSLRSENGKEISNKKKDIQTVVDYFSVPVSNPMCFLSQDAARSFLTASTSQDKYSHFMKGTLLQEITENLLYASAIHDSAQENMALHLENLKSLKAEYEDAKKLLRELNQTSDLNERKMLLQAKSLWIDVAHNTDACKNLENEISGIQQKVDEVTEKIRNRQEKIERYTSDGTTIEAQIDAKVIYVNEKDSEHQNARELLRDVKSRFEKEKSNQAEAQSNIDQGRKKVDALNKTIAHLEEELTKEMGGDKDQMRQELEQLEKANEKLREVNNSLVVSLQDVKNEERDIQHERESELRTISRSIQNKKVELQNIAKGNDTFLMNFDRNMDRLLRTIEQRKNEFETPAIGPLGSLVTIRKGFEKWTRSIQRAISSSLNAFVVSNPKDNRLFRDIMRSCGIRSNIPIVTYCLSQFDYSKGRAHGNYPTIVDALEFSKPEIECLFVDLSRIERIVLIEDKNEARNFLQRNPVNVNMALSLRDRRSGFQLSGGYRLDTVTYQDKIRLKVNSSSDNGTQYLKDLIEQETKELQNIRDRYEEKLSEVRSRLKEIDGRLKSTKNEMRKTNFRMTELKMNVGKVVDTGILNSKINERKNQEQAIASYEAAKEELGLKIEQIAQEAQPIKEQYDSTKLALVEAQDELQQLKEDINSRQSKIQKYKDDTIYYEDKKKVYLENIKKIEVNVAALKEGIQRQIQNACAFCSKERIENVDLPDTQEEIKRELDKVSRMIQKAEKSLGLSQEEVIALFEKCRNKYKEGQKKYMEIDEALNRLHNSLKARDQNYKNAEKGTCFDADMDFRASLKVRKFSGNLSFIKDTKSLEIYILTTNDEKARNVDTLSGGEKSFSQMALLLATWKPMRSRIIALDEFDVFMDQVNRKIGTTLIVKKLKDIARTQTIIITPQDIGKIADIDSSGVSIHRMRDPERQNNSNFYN

[2] = molecular target: T2, S. cerevisiae Nse3 (S. cerevisiae) (UniProt Q05541); experiment: pull-down; S. cerevisiae Smc5/6 subunits co-expressed in E. coli Rosetta (DE3), one subunit with a Twin-Strep tag (N- or C-terminal); clarified lysate on Strep-Tactin Sepharose, 1 h at 4°C, 50 mM Tris-HCl pH 7.5, 300 mM NaCl, 5% glycerol; eluted with 2.5 mM desthiobiotin; Coomassie-stained SDS-PAGE
T2 sequence: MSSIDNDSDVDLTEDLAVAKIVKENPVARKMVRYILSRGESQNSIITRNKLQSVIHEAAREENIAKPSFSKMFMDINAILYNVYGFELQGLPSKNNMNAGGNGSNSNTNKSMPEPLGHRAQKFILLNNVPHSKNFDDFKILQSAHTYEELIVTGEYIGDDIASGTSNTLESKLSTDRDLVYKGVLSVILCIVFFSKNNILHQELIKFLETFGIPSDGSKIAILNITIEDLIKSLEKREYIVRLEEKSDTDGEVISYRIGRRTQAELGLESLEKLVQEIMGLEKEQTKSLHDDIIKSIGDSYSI

[3] = molecular target: T3, S. cerevisiae Smc5 (S. cerevisiae) (UniProt Q08204); experiment: as above
T3 sequence: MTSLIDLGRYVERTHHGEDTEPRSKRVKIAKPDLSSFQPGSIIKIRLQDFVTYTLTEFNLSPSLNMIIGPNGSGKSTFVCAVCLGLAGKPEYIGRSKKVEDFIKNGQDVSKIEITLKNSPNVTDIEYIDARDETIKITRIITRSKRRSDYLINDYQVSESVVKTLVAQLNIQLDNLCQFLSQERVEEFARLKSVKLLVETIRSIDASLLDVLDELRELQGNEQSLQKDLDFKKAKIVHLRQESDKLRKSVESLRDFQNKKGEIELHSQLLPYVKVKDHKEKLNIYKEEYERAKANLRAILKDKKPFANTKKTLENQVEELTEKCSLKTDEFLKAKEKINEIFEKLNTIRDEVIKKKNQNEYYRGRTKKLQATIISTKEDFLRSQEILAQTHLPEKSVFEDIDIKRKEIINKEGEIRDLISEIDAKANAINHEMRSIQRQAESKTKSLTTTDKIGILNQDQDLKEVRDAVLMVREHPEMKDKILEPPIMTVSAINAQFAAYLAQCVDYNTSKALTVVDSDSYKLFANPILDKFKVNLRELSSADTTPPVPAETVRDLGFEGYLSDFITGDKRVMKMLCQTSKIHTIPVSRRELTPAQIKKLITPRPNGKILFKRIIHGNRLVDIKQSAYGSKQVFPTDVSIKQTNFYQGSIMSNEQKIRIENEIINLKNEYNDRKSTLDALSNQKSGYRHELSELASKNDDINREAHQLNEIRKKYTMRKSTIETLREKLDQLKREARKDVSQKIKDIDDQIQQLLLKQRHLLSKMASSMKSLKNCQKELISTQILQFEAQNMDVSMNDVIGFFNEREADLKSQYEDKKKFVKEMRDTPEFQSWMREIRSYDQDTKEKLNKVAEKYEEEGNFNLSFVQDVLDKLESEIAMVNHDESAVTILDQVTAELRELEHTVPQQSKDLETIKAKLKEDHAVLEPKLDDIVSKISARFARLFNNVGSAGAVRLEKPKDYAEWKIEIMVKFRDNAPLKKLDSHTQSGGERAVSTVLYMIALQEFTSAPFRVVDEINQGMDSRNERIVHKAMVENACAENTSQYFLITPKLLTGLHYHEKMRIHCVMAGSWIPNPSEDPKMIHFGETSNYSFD

[4] = molecular target: T4, S. cerevisiae Nse4 (S. cerevisiae) (UniProt P43124); experiment: as above
T4 sequence: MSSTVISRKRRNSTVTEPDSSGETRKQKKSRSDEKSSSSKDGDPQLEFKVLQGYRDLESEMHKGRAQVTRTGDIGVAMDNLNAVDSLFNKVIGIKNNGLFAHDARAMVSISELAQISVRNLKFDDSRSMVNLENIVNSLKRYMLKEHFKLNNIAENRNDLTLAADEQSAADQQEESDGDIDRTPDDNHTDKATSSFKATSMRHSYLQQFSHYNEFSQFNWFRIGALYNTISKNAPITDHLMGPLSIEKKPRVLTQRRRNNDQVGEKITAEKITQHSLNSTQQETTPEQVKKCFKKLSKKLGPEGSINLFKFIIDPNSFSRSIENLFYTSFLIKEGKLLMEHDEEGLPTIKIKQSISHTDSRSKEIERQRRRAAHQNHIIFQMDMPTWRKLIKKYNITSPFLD

[5] = molecular target: T1, S. cerevisiae Smc6 (S. cerevisiae); experiment: as above
[6] = molecular target: T5, S. cerevisiae Nse1 (S. cerevisiae) (UniProt Q07913); experiment: as above
T5 sequence: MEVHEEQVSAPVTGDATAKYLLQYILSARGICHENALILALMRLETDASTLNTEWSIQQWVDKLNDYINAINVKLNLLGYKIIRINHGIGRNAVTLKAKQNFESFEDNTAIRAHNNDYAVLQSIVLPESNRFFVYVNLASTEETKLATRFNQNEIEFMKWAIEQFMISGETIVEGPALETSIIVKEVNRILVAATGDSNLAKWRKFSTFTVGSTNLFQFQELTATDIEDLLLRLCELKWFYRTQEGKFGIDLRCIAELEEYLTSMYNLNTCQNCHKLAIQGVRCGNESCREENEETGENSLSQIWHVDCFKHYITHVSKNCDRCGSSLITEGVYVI

binding [1]: binds | binding [2]: binds | binding [3]: binds | binding [4]: binds | binding [5]: binds
B1: S. cerevisiae Nse1 (protein, UniProt Q07913 1-336)
chain: T5 sequence

binding [1]: binds | binding [6]: binds | binding [3]: binds | binding [4]: binds | binding [5]: binds
B2: S. cerevisiae Nse3 (protein, UniProt Q05541 1-303)
chain: T2 sequence

binding [1]: binds | binding [6]: binds | binding [2]: binds | binding [3]: binds | binding [5]: binds
B3: S. cerevisiae Nse4 (protein, UniProt P43124 1-402)
chain: T4 sequence
